Source: patent US20100292258A1, “SUBSTITUTED AROMATIC HETEROCYCLIC COMPOUNDS AS FUNGICIDES” (SYNGENTA CROP PROTECTION, INC., priority 2007, published 2010)
Some entries share one result that the patent states for a list of compounds.

Tested on: Fusarium culmorum
Assay: Fusarium culmorum (root rot) growth inhibition in nutrient broth, microtiter plate
Type: cell-based
Details: 20 ppm; PDB broth, 24° C., inhibition of growth determined photometrically after 48 hours

Row | SMILES | control of Fusarium culmorum
1 | OC(c1cccnc1)c1c(-c2ccc(F)cc2Cl)ccn1-c1cccc(Cl)c1 (centres unmarked) [Compound 85] | at least 80%
2 | OC(c1cccnc1)c1c(-c2ccccc2Cl)ccn1-c1cccc(Cl)c1 (centres unmarked) [Compound 63] | at least 80%
